Data as given in PubChem BioAssay AID1259281 (Sanger Institute, 2017)
Test: 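Identify essential genes and drug-enhancing knock-downs among kinases and common colorectal mutated genes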 (primary screen). Cell system: human COLO678 colorectal cancer cell line. Reagent: siRNA pool against human genes. Conditions: anchor drugs at fixed doses: BYL719 1 µM, cetuximab 5 µg/ml or trametinib 10 nM; DMSO vehicle for the siRNA-alone arm. Read-out: 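Surviving cells scaled to non-targeting siRNA control as replicate means; robust z-score for knock-down alone; synergy scores weigh knock-down with drug against the predicted combined effect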. Scale: robust z-score, siRNA alone: higher = more viable cells; strongly negative means essential; viability, siRNA alone: higher = more surviving cells; synergy score with BYL719: higher = stronger synergistic killing with drug. Rule for the call: 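Called essential (knock-down alone) if knock-down by itself drops cell number to a robust z-score under -3; all others no change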. Meaning of the calls: active = essential (knock-down alone); inactive = no change.
In all, the deposit lists 794 reagents; below is an unselected part. In the full data, 22 (2.8%) are marked active. 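Calls rest on knock-down alone only; drug synergy scores play no part in them.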 Viability is capped at 1. Not all columns of the deposit are shown. Not given: the amount of reagent, the time to read-out.

gene knocked down | robust z-score, siRNA alone | viability, siRNA alone (fraction of control) | synergy score with BYL719 | outcome
NEK7 (GeneID 140609) | 0.473 | 1 | -0.0464 | inactive
AMER1 (GeneID 139285) | 0.473 | 1 | 0.022 | inactive
MAGI1 (GeneID 9223) | 0.473 | 1 | -0.0919 | inactive
PTK2 (GeneID 5747) | -3.21 | 0.883 | -0.035 | active
LATS2 (GeneID 26524) | 0.473 | 1 | -0.0919 | inactive
ALDH18A1 (GeneID 5832) | 0.473 | 1 | 0.0829 | inactive
KALRN (GeneID 8997) | 0.112 | 0.989 | -0.102 | inactive
EPHB2 (GeneID 2048) | 0.473 | 1 | -0.0643 | inactive
RPS6KA6 (GeneID 27330) | -0.178 | 0.979 | -0.111 | inactive
MYH10 (GeneID 4628) | 0.473 | 1 | -0.0402 | inactive
DYRK2 (GeneID 8445) | 0.473 | 1 | -0.0547 | inactive
GK2 (GeneID 2712) | 0.473 | 1 | -0.0892 | inactive
BRD2 (GeneID 6046) | 0.473 | 1 | -0.0919 | inactive
WNK3 (GeneID 65267) | 0.473 | 1 | -0.0278 | inactive
MAP3K21 (GeneID 84451) | 0.473 | 1 | 0.0407 | inactive
EIF2AK2 (GeneID 5610) | 0.473 | 1 | 0.0152 | inactive
BRDT (GeneID 676) | 0.473 | 1 | 0.0105 | inactive
IRAK1 (GeneID 3654) | 0.473 | 1 | -0.0423 | inactive
PIP4K2A (GeneID 5305) | 0.473 | 1 | -0.0882 | inactive
TK2 (GeneID 7084) | 0.473 | 1 | -0.0538 | inactive

Already shown: entries from further up.
gene knocked down | robust z-score, siRNA alone | viability, siRNA alone (fraction of control) | synergy score with BYL719 | outcome
GK2 (GeneID 2712) | 0.473 | 1 | -0.0892 | inactive
BRD2 (GeneID 6046) | 0.473 | 1 | -0.0919 | inactive
WNK3 (GeneID 65267) | 0.473 | 1 | -0.0278 | inactive
